According to doi:10.1101/2020.08.04.236182:
These are yes or no findings as the source states them, for the method shown. In cells and extracts the contact can be indirect. Some binding calls cover weakened binding; strength is not graded here.

Biological target: GRB2 (human (endogenous in HUVEC)), P62993
Assay: co-IP
Conditions: remark: other sources report otherwise

- binding: binds
B1: caveolin-1 (Cav1), Q03135 1-178 (protein)
chain: MSGGKYVDSEGHLYTVPIREQGNIYKPNNKAMADELSEKQVYDAHTKEIDLVNRDPKHLNDDVVKIDFEDVIAEPEGTHSFDGIWKASFTTFTVTKYWFYRLLSALFGIPMALIWGIYFAILSFLHIWAVVPCIKSFLIEIQCISRVYSIYVHTVCDPLFEAVGKIFSNVRINLQKEI
